Laboratory results published in article PMC7364817.
No constants are given. Whether binding was seen depends on the method and setting. In cells and extracts the contact can be indirect. These calls come from enrichment with a bait or labelling near it, and not all partners need be listed. Tags and fused reporters may be left off the sequences shown.

T1: FLAG-tagged SMCR8 (Smith-Magenis Syndrome Chromosome Region, Candidate 8) (UniProt Q8TEV9)
T1 sequence: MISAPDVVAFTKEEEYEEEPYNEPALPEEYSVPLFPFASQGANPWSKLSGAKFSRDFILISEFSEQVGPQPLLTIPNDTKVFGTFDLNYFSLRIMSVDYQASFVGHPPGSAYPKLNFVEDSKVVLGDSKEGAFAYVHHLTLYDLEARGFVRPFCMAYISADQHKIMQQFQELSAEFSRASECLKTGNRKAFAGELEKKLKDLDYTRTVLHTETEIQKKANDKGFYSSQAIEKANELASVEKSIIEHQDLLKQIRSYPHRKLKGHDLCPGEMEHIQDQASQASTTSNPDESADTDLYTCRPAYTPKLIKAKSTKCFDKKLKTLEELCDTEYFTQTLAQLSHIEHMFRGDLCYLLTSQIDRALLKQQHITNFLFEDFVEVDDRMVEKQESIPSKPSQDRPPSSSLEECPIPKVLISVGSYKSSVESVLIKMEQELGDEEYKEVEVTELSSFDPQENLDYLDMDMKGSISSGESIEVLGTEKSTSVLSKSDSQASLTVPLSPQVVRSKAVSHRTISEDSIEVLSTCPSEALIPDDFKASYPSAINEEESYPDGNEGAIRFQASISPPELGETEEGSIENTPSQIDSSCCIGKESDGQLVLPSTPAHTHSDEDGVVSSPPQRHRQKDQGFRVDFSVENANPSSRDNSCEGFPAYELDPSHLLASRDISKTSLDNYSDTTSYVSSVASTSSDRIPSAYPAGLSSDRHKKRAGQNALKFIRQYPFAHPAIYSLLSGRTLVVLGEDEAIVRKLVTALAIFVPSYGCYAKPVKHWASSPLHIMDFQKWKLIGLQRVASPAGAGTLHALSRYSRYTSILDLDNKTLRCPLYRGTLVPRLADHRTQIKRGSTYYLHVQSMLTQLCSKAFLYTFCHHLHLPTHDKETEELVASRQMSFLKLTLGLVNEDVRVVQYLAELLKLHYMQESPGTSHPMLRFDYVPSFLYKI

B1: DnaJ heat shock protein family member C7 (protein, UniProt Q99615 1-494)
chain: MAAAAECDVVMAATEPELLDDQEAKREAETFKEQGNAYYAKKDYNEAYNYYTKAIDMCPKNASYYGNRAATLMMLGRFREALGDAQQSVRLDDSFVRGHLREGKCHLSLGNAMAACRSFQRALELDHKNAQAQQEFKNANAVMEYEKIAETDFEKRDFRKVVFCMDRALEFAPACHRFKILKAECLAMLGRYPEAQSVASDILRMDSTNADALYVRGLCLYYEDCIEKAVQFFVQALRMAPDHEKACIACRNAKALKAKKEDGNKAFKEGNYKLAYELYTEALGIDPNNIKTNAKLYCNRGTVNSKLRKLDDAIEDCTNAVKLDDTYIKAYLRRAQCYMDTEQYEEAVRDYEKVYQTEKTKEHKQLLKNAQLELKKSKRKDYYKILGVDKNASEDEIKKAYRKRALMHHPDRHSGASAEVQKEEEKKFKEVGEAFTILSDPKKKTRYDSGQDLDEEGMNMGDFDPNNIFKAFFGGPGGFSFEASGPGNFFFQFG
B2: aspartyl-tRNA synthetase (protein, UniProt P14868 1-501)
chain: MPSASASRKSQEKPREIMDAAEDYAKERYGISSMIQSQEKPDRVLVRVRDLTIQKADEVVWVRARVHTSRAKGKQCFLVLRQQQFNVQALVAVGDHASKQMVKFAANINKESIVDVEGVVRKVNQKIGSCTQQDVELHVQKIYVISLAEPRLPLQLDDAVRPEAEGEEEGRATVNQDTRLDNRVIDLRTSTSQAVFRLQSGICHLFRETLINKGFVEIQTPKIISAASEGGANVFTVSYFKNNAYLAQSPQLYKQMCICADFEKVFSIGPVFRAEDSNTHRHLTEFVGLDIEMAFNYHYHEVMEEIADTMVQIFKGLQERFQTEIQTVNKQFPCEPFKFLEPTLRLEYCEALAMLREAGVEMGDEDDLSTPNEKLLGHLVKEKYDTDFYILDKYPLAVRPFYTMPDPRNPKQSNSYDMFMRGEEILSGAQRIHDPQLLTERALHHGIDLEKIKAYIDSFRFGAPPHAGGGIGLERVTMLFLGLHNVRQTSMFPRDPKRLTP
B3: solute carrier family 25 member 11 (protein, UniProt Q02978 1-314)
chain: MAATASAGAGGIDGKPRTSPKSVKFLFGGLAGMGATVFVQPLDLVKNRMQLSGEGAKTREYKTSFHALTSILKAEGLRGIYTGLSAGLLRQATYTTTRLGIYTVLFERLTGADGTPPGFLLKAVIGMTAGATGAFVGTPAEVALIRMTADGRLPADQRRGYKNVFNALIRITREEGVLTLWRGCIPTMARAVVVNAAQLASYSQSKQFLLDSGYFSDNILCHFCASMISGLVTTAASMPVDIAKTRIQNMRMIDGKPEYKNGLDVLFKVVRYEGFFSLWKGFTPYYARLGPHTVLTFIFLEQMNKAYKRLFLSG
B4: MAGE family member D1 (protein, UniProt Q9Y5V3 1-778)
chain: MAQKMDCGAGLLGFQAEASVEDSALLMQTLMEAIQISEAPPTNQATAAASPQSSQPPTANEMADIQVSAAAARPKSAFKVQNATTKGPNGVYDFSQAHNAKDVPNTQPKAAFKSQNATPKGPNAAYDFSQAATTGELAANKSEMAFKAQNATTKVGPNATYNFSQSLNANDLANSRPKTPFKAWNDTTKAPTADTQTQNVNQAKMATSQADIETDPGISEPDGATAQTSADGSQAQNLESRTIIRGKRTRKINNLNVEENSSGDQRRAPLAAGTWRSAPVPVTTQNPPGAPPNVLWQTPLAWQNPSGWQNQTARQTPPARQSPPARQTPPAWQNPVAWQNPVIWPNPVIWQNPVIWPNPIVWPGPVVWPNPLAWQNPPGWQTPPGWQTPPGWQGPPDWQGPPDWPLPPDWPLPPDWPLPTDWPLPPDWIPADWPIPPDWQNLRPSPNLRPSPNSRASQNPGAAQPRDVALLQERANKLVKYLMLKDYTKVPIKRSEMLRDIIREYTDVYPEIIERACFVLEKKFGIQLKEIDKEEHLYILISTPESLAGILGTTKDTPKLGLLLVILGVIFMNGNRASEAVLWEALRKMGLRPGVRHPLLGDLRKLLTYEFVKQKYLDYRRVPNSNPPEYEFLWGLRSYHETSKMKVLRFIAEVQKRDPRDWTAQFMEAADEALDALDAAAAEAEARAEARTRMGIGDEAVSGPWSWDDIEFELLTWDEEGDFGDPWSRIPFTFWARYHQNARSRFPQTFAGPIIGPGGTASANFAANFGAIGFFWVE
B5: SPTLC1 (protein, UniProt O15269 1-473)
chain: MATATEQWVLVEMVQALYEAPAYHLILEGILILWIIRLLFSKTYKLQERSDLTVKEKEELIEEWQPEPLVPPVPKDHPALNYNIVSGPPSHKTVVNGKECINFASFNFLGLLDNPRVKAAALASLKKYGVGTCGPRGFYGTFDVHLDLEDRLAKFMKTEEAIIYSYGFATIASAIPAYSKRGDIVFVDRAACFAIQKGLQASRSDIKLFKHNDMADLERLLKEQEIEDQKNPRKARVTRRFIVVEGLYMNTGTICPLPELVKLKYKYKARIFLEESLSFGVLGEHGRGVTEHYGINIDDIDLISANMENALASIGGFCCGRSFVIDHQRLSGQGYCFSASLPPLLAAAAIEALNIMEENPGIFAVLKEKCGQIHKALQGISGLKVVGESLSPAFHLQLEESTGSREQDVRLLQEIVDQCMNRSIALTQARYLEKEEKCLPPPSIRVVVTVEQTEEELERAASTIKEVAQAVLL
B6: solute carrier family 25 member 3 (protein, UniProt Q00325 50-362)
chain: AVEEQYSCDYGSGRFFILCGLGGIISCGTTHTALVPLDLVKCRMQVDPQKYKGIFNGFSVTLKEDGVRGLAKGWAPTFLGYSMQGLCKFGFYEVFKVLYSNMLGEENTYLWRTSLYLAASASAEFFADIALAPMEAAKVRIQTQPGYANTLRDAAPKMYKEEGLKAFYKGVAPLWMRQIPYTMMKFACFERTVEALYKFVVPKPRSECSKPEQLVVTFVAGYIAGVFCAIVSHPADSVVSVLNKEKGSSASLVLKRLGFKGVWKGLFARIIMIGTLTALQWFIYDSVKVYFRLPRPPPPEMPESLKKKLGLTQ
B7: TECR (protein, UniProt Q9NZ01 1-308)
chain: MKHYEVEILDAKTREKLCFLDKVEPHATIAEIKNLFTKTHPQWYPARQSLRLDPKGKSLKDEDVLQKLPVGTTATLYFRDLGAQISWVTVFLTEYAGPLFIYLLFYFRVPFIYGHKYDFTSSRHTVVHLACICHSFHYIKRLLETLFVHRFSHGTMPLRNIFKNCTYYWGFAAWMAYYINHPLYTPPTYGAQQVKLALAIFVICQLGNFSIHMALRDLRPAGSKTRKIPYPTKNPFTWLFLLVSCPNYTYEVGSWIGFAIMTQCLPVALFSLVGFTQMTIWAKGKHRSYLKEFRDYPPLRMPIIPFLL
B8: LAS1L (protein, UniProt Q9Y4W2 1-734)
chain: MSWESGAGPGLGSQGMDLVWSAWYGKCVKGKGSLPLSAHGIVVAWLSRAEWDQVTVYLFCDDHKLQRYALNRITVWRSRSGNELPLAVASTADLIRCKLLDVTGGLGTDELRLLYGMALVRFVNLISERKTKFAKVPLKCLAQEVNIPDWIVDLRHELTHKKMPHINDCRRGCYFVLDWLQKTYWCRQLENSLRETWELEEFREGIEEEDQEEDKNIVVDDITEQKPEPQDDGKSTESDVKADGDSKGSEEVDSHCKKALSHKELYERARELLVSYEEEQFTVLEKFRYLPKAIKAWNNPSPRVECVLAELKGVTCENREAVLDAFLDDGFLVPTFEQLAALQIEYEDGQTEVQRGEGTDPKSHKNVDLNDVLVPKPFSQFWQPLLRGLHSQNFTQALLERMLSELPALGISGIRPTYILRWTVELIVANTKTGRNARRFSAGQWEARRGWRLFNCSASLDWPRMVESCLGSPCWASPQLLRIIFKAMGQGLPDEEQEKLLRICSIYTQSGENSLVQEGSEASPIGKSPYTLDSLYWSVKPASSSFGSEAKAQQQEEQGSVNDVKEEEKEEKEVLPDQVEEEEENDDQEEEEEDEDDEDDEEEDRMEVGPFSTGQESPTAENARLLAQKRGALQGSAWQVSSEDVRWDTFPLGRMPGQTEDPAELMLENYDTMYLLDQPVLEQRLEPSTCKTDTLGLSCGVGSGNCSNSSSSNFEGLLWSQGQLHGLKTGLQLF
B9: SLC25A22 (protein, UniProt Q9H936 1-323)
chain: MADKQISLPAKLINGGIAGLIGVTCVFPIDLAKTRLQNQQNGQRVYTSMSDCLIKTVRSEGYFGMYRGAAVNLTLVTPEKAIKLAANDFFRHQLSKDGQKLTLLKEMLAGCGAGTCQVIVTTPMEMLKIQLQDAGRIAAQRKILAAQGQLSAQGGAQPSVEAPAAPRPTATQLTRDLLRSRGIAGLYKGLGATLLRDVPFSVVYFPLFANLNQLGRPASEEKSPFYVSFLAGCVAGSAAAVAVNPCDVVKTRLQSLQRGVNEDTYSGILDCARKILRHEGPSAFLKGAYCRALVIAPLFGIAQVVYFLGIAESLLGLLQDPQA

What follows are binders tested against T1, FLAG-tagged SMCR8 (Smith-Magenis Syndrome Chromosome Region, Candidate 8) (assay: affinity purification with mass spectrometry; FL-SMCR8, C9orf72-FL or empty vector transfected in HEK 293T; α-FLAG agarose IP from whole cell lysates with or without RNase; LC-MS/MS; hits with three or more spectra and not detected in vector only control).

binding, binds:
B1
B2
B3
B4
B5
B6
B7
B8
B9
